Measured values as given in the supplement of paper PMC11006884.
The list shows a part of the results, in another mix than the full data. The data scatter; read single values as rough.

Sequences of proteins named here, by UniProt entry; tags and fusion partners are left off. A change or cut given only in a name is not applied to a line headed by its entry.
UniProt P05386, whole entry, looked up: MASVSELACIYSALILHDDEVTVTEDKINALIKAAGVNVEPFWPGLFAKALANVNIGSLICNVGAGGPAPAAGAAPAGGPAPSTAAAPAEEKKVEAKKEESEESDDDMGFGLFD
UniProt O95336: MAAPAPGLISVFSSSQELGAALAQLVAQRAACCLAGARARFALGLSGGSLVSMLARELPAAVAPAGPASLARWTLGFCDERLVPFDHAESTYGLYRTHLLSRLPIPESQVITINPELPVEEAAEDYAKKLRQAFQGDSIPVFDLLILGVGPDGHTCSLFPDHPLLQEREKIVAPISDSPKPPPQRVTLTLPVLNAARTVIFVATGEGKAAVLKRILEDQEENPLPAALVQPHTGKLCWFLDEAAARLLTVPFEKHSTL
UniProt O95602, whole entry, looked up: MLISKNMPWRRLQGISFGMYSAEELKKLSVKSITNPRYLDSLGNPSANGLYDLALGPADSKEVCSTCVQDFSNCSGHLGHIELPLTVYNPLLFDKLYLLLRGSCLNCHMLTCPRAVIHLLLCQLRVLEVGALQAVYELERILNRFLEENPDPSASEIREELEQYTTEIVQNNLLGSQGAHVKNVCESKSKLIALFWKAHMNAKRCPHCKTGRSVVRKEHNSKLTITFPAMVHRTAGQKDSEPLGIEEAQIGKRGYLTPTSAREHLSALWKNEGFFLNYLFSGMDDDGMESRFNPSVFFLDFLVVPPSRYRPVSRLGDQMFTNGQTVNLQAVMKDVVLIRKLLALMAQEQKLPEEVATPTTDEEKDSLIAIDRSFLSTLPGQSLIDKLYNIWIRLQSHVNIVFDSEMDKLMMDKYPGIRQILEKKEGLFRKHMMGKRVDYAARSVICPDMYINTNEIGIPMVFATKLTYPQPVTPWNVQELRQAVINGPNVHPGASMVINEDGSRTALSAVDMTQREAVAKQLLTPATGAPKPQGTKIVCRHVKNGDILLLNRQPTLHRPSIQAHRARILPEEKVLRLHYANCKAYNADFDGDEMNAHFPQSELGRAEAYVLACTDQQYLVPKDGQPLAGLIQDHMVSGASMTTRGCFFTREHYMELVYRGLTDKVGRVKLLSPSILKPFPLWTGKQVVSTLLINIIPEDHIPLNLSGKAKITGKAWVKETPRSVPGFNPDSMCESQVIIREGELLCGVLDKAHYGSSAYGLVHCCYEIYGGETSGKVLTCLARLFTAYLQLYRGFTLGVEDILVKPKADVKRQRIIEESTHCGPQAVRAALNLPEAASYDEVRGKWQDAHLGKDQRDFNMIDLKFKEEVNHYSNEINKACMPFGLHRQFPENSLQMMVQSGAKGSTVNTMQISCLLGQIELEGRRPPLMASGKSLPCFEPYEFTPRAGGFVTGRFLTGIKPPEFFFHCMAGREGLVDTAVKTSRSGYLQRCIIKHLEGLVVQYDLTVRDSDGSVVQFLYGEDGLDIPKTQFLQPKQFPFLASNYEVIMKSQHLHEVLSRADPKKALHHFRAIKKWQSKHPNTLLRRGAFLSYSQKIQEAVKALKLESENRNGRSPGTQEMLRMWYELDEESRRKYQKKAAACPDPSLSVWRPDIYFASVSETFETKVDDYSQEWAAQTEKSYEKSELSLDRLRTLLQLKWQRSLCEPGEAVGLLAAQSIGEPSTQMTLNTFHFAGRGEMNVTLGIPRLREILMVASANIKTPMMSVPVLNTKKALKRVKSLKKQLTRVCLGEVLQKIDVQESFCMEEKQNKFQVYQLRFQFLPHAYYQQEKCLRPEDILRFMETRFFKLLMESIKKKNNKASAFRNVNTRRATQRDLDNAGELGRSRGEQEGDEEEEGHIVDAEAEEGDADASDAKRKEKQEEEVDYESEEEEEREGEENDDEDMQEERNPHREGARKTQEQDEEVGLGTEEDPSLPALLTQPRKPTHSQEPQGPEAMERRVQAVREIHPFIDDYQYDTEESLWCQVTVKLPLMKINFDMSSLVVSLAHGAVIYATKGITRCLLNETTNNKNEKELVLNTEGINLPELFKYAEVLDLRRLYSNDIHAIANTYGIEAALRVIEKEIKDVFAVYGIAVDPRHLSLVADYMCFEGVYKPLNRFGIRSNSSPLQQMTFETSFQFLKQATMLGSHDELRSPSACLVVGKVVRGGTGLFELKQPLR
UniProt O95373, whole entry, looked up: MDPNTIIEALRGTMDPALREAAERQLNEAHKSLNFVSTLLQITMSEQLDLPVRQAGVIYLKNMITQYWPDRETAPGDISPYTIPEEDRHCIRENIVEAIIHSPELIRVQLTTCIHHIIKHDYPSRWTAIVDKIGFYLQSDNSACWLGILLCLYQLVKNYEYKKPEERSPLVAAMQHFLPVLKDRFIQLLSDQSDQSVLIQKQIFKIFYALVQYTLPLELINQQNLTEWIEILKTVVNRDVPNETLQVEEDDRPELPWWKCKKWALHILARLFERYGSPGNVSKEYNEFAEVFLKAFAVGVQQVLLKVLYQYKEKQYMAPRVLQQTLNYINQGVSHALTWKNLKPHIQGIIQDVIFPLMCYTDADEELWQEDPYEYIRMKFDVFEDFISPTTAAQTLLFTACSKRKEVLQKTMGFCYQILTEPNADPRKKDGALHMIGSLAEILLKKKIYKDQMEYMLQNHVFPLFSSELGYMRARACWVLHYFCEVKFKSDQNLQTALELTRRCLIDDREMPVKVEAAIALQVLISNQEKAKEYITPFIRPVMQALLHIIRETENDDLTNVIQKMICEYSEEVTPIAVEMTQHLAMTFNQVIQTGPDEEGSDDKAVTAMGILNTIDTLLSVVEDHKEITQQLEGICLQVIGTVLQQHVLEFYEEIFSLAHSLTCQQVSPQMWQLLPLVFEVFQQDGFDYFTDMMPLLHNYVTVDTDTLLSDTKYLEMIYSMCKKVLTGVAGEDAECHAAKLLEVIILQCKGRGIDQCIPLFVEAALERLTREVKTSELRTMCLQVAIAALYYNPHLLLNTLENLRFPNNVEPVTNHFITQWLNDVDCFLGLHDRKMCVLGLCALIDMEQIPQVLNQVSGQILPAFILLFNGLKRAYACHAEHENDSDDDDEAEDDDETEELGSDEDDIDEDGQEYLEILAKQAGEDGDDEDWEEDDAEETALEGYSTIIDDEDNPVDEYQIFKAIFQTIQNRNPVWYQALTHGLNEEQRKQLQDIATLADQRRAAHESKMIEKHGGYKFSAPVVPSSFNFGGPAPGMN
UniProt O95983: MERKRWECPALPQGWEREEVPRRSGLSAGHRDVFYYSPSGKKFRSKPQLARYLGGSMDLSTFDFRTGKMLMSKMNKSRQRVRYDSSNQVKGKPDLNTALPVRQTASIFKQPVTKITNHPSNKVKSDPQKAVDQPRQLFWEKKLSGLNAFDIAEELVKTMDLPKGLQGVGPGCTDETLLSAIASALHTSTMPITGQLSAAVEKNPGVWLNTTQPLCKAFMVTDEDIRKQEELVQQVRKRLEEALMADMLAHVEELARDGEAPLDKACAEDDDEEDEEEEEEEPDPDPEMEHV
UniProt O96006: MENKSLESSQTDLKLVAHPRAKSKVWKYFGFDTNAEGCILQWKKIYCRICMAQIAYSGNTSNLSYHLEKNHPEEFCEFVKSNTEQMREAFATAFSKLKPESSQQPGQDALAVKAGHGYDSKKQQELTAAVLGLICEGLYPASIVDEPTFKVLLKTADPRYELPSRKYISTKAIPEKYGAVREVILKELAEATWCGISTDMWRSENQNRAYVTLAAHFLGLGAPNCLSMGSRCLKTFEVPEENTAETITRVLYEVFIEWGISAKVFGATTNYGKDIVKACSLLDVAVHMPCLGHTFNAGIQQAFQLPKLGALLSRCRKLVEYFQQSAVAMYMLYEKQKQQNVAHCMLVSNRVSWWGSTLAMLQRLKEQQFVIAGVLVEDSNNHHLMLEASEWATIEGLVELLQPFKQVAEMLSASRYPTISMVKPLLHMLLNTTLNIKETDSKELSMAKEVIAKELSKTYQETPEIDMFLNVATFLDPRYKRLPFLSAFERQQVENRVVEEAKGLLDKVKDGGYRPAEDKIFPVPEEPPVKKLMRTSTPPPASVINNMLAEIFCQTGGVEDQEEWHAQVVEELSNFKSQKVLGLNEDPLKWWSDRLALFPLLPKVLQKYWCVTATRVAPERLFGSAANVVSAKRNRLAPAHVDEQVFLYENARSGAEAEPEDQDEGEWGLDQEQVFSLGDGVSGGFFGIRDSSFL
UniProt P07203, whole entry, looked up: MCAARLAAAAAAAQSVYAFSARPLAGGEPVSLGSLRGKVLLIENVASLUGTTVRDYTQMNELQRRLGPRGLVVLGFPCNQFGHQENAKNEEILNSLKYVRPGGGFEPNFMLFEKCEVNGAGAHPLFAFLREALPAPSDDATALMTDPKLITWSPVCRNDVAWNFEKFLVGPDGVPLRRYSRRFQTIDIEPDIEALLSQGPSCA
UniProt O94925: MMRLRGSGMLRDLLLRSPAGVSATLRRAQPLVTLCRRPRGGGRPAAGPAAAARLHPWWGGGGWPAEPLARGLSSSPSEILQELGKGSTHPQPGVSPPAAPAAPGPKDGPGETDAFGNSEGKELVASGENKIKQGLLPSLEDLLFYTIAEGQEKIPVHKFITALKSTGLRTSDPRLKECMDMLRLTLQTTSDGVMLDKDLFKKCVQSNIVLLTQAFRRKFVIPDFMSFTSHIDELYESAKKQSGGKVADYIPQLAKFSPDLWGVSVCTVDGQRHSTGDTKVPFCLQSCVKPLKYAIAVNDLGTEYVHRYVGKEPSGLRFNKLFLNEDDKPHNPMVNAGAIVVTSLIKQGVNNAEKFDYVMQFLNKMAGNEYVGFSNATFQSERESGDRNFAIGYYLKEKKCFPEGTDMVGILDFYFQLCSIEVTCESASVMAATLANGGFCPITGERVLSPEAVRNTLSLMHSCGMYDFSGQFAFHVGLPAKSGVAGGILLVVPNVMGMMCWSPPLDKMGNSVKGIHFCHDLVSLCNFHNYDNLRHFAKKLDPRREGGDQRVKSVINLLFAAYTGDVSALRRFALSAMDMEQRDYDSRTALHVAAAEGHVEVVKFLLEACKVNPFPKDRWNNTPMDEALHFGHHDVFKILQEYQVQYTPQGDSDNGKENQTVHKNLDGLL
UniProt O95571: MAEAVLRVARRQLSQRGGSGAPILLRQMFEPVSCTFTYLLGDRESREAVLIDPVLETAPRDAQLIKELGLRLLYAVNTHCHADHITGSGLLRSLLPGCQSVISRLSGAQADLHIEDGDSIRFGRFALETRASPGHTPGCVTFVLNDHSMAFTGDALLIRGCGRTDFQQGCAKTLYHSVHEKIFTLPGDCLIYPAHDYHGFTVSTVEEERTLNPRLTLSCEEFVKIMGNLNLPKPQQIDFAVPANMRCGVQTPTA
UniProt P07737, whole entry, looked up: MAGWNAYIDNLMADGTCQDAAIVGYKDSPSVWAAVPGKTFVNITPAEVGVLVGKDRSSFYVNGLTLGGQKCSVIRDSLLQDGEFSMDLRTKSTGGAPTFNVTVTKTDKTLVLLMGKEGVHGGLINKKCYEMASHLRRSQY
UniProt P00558: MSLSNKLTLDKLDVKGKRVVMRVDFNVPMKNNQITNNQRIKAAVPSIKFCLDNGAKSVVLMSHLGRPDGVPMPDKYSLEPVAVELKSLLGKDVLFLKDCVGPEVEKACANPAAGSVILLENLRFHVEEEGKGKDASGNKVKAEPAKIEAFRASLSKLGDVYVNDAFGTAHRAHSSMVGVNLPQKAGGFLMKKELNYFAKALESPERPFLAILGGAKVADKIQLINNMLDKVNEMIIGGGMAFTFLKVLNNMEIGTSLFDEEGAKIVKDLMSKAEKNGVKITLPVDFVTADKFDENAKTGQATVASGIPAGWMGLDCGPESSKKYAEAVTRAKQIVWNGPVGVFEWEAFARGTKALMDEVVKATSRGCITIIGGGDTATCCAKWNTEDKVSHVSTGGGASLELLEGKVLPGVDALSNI
UniProt P07355, whole entry, looked up: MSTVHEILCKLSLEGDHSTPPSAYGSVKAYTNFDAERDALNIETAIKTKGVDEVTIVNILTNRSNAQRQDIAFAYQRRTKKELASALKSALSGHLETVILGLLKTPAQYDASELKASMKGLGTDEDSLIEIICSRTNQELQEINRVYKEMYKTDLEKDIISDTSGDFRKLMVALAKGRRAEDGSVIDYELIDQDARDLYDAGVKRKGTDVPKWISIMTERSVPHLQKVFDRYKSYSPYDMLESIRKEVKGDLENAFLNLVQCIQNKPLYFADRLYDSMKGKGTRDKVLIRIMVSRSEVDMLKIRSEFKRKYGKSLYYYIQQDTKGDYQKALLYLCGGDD

compound: COC(=O)/C=C/c1ccccc1 [methyl cinnamate]; assay: log2 ratio of iodoacetamide-alkyne labeling of the cysteine site, DMSO over compound (competition); higher = stronger covalent engagement of the cysteine by the compound, active = 1 or more; conditions: 500 µM; treatment time 1 h; system: HEK293T cell lysate
Outline: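 After 1 h at ambient temperature with vehicle or electrophile (500 µM), HEK293T lysate (2 mg/mL) was labelled for 1 h with iodoacetamide alkyne and clicked to sCIP-TMT reagents. Pooled samples were trypsin-digested overnight at 37 °C, streptavidin-enriched, acid-eluted and analysed by Orbitrap Eclipse LC-MS/MS with FAIMS, then quantified in FragPipe over three replicates with duplicate channels. A cysteine's log2 competition ratio is its mean control-channel over mean compound-channel reporter intensity. Cysteines quantified in only one replicate were not included.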

log2 ratio of iodoacetamide-alkyne labeling, inactive:
RPLP1 C9 (UniProt P05386) 0.0998
PGLS C237 (UniProt O95336) -0.0217
POLR1A C822 (UniProt O95602) 0.124
IPO7 C415 (UniProt O95373) -0.018
MBD3 C172 (UniProt O95983) -0.0468
SMC2 C585 (UniProt O95347) 0.404
ZBED1 C76 (UniProt O96006) 0.264
GPX1 C115 (UniProt P07203) -0.0233
LDHA C163 (UniProt P00338) 0.194
GLS C266 (UniProt O94925) -0.0709
ETHE1 C34 (UniProt O95571) 0.119
PFN1 C17 (UniProt P07737) -0.293
PGK1 C50 (UniProt P00558) 0.277
ANXA2 C133 (UniProt P07355) 0.172
KIF4A C312 (UniProt O95239) -0.313

Two entries drawn at random from the list so far, as already listed:
log2 ratio of iodoacetamide-alkyne labeling, inactive:
ZBED1 C76 (UniProt O96006) 0.264
RPLP1 C9 (UniProt P05386) 0.0998
